Assay results reported in publication PMC10053710, “Influence of Lipidation Pattern of the KR12 Fragment of Peptide LL-37 on Its Antibacterial and Hemolytic Activities” (International Journal of Molecular Sciences, 2023).
For part of these data: Which two values form the index is not stated here. Where a SMILES comes first, the peptide text is derived from it. The star is where a group is joined. Butanoyl(4-Ph) = O=C(CCCc1ccccc1)*; Hydrocinnamoyl = O=C(CCc1ccccc1)*; Octanoyl = CCCCCCCC(=O)*; X1 = CCCCCCC(CCCC)C(=O)*; X4 = O=C(/C=C/c1ccccc1)*; X2 = O=C(C#Cc1ccccc1)*; X3 = CCCCC(CC)C(=O)*

Tests used:
[1] = tested on: Pseudomonas aeruginosa ATCC 9027; type: cell-based; settings: calculated from MHC5 (hRBCs) and MIC
Description: (§1) Tests of the antibacterial activity were carried out as we just described. Briefly, for assays, the following strains of ESKAPE bacteria were chosen: Acinetobacter baumannii ATCC BAA-1605, Enterococcus faecium ATCC 700221, Klebsiella aerogenes ATCC 13048 (formerly Enterobacter aerogenes), Klebsiella pneumoniae ATCC 700603, and Pseudomonas aeruginosa ATCC 9027. Moreover, the reference strains of Staphylococcus aureus were used: S. aureus ATCC 25923, S. aureus ATCC 6538, S. aureus ATCC 33591 (MRSA), S. aureus ATCC 9144, and S. aureus ATCC 12598. Before experiments, all the strains were stored at −80 °C in Roti®-Store cryo vials (Carl Roth GmbH, Karlsruhe, Germany). To evaluate the activity of the compounds, bacteria were transferred into fresh Mueller–Hinton medium (Becton Dickinson, Warszawa, Poland) and incubated for 24 h at 37 °C. In the next step, bacterial inoculums were seeded on Mueller–Hinton agar plates (BioMaxima SA, Lublin, Poland) and incubated again for 24 h. The MIC values were determined using the broth microdilution method according to the Clinical and Laboratory Standards Institute Protocol. The initial inoculums of bacteria (0.5 × 10^5 colony forming units (CFU)/mL) prepared in Mueller–Hinton broth were exposed to the ranging concentrations of peptides (1–512 µg/mL). The experiments were conducted on 96-well microtiter plates, with a final volume of 100 µL. The inoculum densities were checked spectrophotometrically (Multiskan™ GO Microplate Spectrophotometer, Thermo Scientific, Waltham, MA, USA) at 600 nm. The results were read after incubation for 18 h at 37 °C. The MIC values were the lowest concentration at which a visible growth of microorganisms was inhibited. All experiments were conducted in triplicate. Moreover, positive (growth) and negative (sterility) controls were included.

[2] = tested on: Klebsiella aerogenes ATCC 13048; type: cell-based; settings: calculated from MHC5 (hRBCs) and MIC
Description: as §1

[3] = tested on: Enterococcus faecium ATCC 700221; type: cell-based; settings: calculated from MHC5 (hRBCs) and MIC
Description: as §1

[4] = tested on: Klebsiella pneumoniae ATCC 700603; type: cell-based; settings: calculated from MHC5 (hRBCs) and MIC
Description: as §1

[5] = calculated from MHC5 (hRBCs) and MIC

SMILES | Selectivity index P. aeruginosa [1] | Selectivity index K. aerogenes [2] | Selectivity index E. faecium [3] | Selectivity index K. pneumoniae [4] | Selectivity index A. baumannii [5]
CCCCCCCC(=O)N[C@@H](CCCCN)C(=O)N[C@@H](CCCNC(=N)N)C(=O)N[C@H](C(=O)N[C@H](C(=O)N[C@@H](CCC(N)=O)C(=O)N[C@@H](CCCNC(=N)N)C(=O)N[C@H](C(=O)N[C@@H](CCCCN)C(=O)N[C@@H](CC(=O)O)C(=O)N[C@@H](Cc1ccccc1)C(=O)N[C@@H](CC(C)C)C(=O)N[C@@H](CCCNC(=N)N)C(N)=O)[C@@H](C)CC)C(C)C)[C@@H](C)CC [II, C8^α-KR12-NH2] (Octanoyl-KRIVQRIKDFLR-NH2) | 4 | 16 | 16 | 8 | 
CCCCCCCC(=O)NCCCC[C@H](N)C(=O)N[C@@H](CCCNC(=N)N)C(=O)N[C@H](C(=O)N[C@H](C(=O)N[C@@H](CCC(N)=O)C(=O)N[C@@H](CCCNC(=N)N)C(=O)N[C@H](C(=O)N[C@@H](CCCCN)C(=O)N[C@@H](CC(=O)O)C(=O)N[C@@H](Cc1ccccc1)C(=O)N[C@@H](CC(C)C)C(=O)N[C@@H](CCCNC(=N)N)C(N)=O)[C@@H](C)CC)C(C)C)[C@@H](C)CC [III, C8^ε-KR12-NH2] (H-K(Octanoyl)RIVQRIKDFLR-NH2) | 8 | 8 | 128 | 16 | 
CCCCCCCC(=O)N[C@@H](CCCCN)C(=O)N[C@@H](CCCCN)C(=O)N[C@@H](CCCNC(=N)N)C(=O)N[C@H](C(=O)N[C@H](C(=O)N[C@@H](CCC(N)=O)C(=O)N[C@@H](CCCNC(=N)N)C(=O)N[C@H](C(=O)N[C@@H](CCCCN)C(=O)N[C@@H](CC(=O)O)C(=O)N[C@@H](Cc1ccccc1)C(=O)N[C@@H](CC(C)C)C(=O)N[C@@H](CCCNC(=N)N)C(N)=O)[C@@H](C)CC)C(C)C)[C@@H](C)CC [IV, C8^α-Lys-KR12-NH2] (Octanoyl-KKRIVQRIKDFLR-NH2) | 8 | 8 | 64 | 16 | 
CCCCCCCC(=O)NCCCC[C@H](N)C(=O)N[C@@H](CCCCN)C(=O)N[C@@H](CCCNC(=N)N)C(=O)N[C@H](C(=O)N[C@H](C(=O)N[C@@H](CCC(N)=O)C(=O)N[C@@H](CCCNC(=N)N)C(=O)N[C@H](C(=O)N[C@@H](CCCCN)C(=O)N[C@@H](CC(=O)O)C(=O)N[C@@H](Cc1ccccc1)C(=O)N[C@@H](CC(C)C)C(=O)N[C@@H](CCCNC(=N)N)C(N)=O)[C@@H](C)CC)C(C)C)[C@@H](C)CC [V, C8^ε-Lys-KR12-NH2] (H-K(Octanoyl)KRIVQRIKDFLR-NH2) | 16 | 4 | 64 | 16 | 
CCCCCCCC(=O)NCCCC[C@H](NC(=O)[C@H](CCCNC(=N)N)NC(=O)[C@H](CC(C)C)NC(=O)[C@H](Cc1ccccc1)NC(=O)[C@H](CC(=O)O)NC(=O)[C@H](CCCCN)NC(=O)[C@@H](NC(=O)[C@H](CCCNC(=N)N)NC(=O)[C@H](CCC(N)=O)NC(=O)[C@@H](NC(=O)[C@@H](NC(=O)[C@H](CCCNC(=N)N)NC(=O)[C@@H](N)CCCCN)[C@@H](C)CC)C(C)C)[C@@H](C)CC)C(N)=O [VI, KR12-Lys^ε(C8)-NH2] (H-KRIVQRIKDFLRK(Octanoyl)-NH2) | 16 | 8 | 128 | 16 | 
CCCCCCCC(=O)NCCCC[C@H](NC(=O)[C@@H](NC(=O)[C@H](CCCNC(=N)N)NC(=O)[C@H](CCC(N)=O)NC(=O)[C@@H](NC(=O)[C@@H](NC(=O)[C@H](CCCNC(=N)N)NC(=O)[C@@H](N)CCCCN)[C@@H](C)CC)C(C)C)[C@@H](C)CC)C(=O)N[C@@H](CC(=O)O)C(=O)N[C@@H](Cc1ccccc1)C(=O)N[C@@H](CC(C)C)C(=O)N[C@@H](CCCNC(=N)N)C(N)=O [VIII, [Lys^ε(C8)]^8KR12-NH2] (H-KRIVQRIK(Octanoyl)DFLR-NH2) | 1 | 2 | 8 | 2 | 
CCCCCCCC(=O)N[C@@H](CCCNC(=N)N)C(=O)N[C@@H](CC(C)C)C(=O)N[C@@H](Cc1ccccc1)C(=O)N[C@@H](CC(=O)O)C(=O)N[C@@H](CCCCN)C(=O)N[C@H](C(=O)N[C@@H](CCCNC(=N)N)C(=O)N[C@@H](CCC(N)=O)C(=O)N[C@H](C(=O)N[C@H](C(=O)N[C@@H](CCCNC(=N)N)C(=O)N[C@@H](CCCCN)C(N)=O)[C@@H](C)CC)C(C)C)[C@@H](C)CC [XII, C8^α-retro-KR12-NH2] (Octanoyl-RLFDKIRQVIRK-NH2) | 8 | 2 | 64 | 4 | 
CCCCCCC(CCCC)C(=O)N[C@@H](CCCCN)C(=O)N[C@@H](CCCNC(=N)N)C(=O)N[C@H](C(=O)N[C@H](C(=O)N[C@@H](CCC(N)=O)C(=O)N[C@@H](CCCNC(=N)N)C(=O)N[C@H](C(=O)N[C@@H](CCCCN)C(=O)N[C@@H](CC(=O)O)C(=O)N[C@@H](Cc1ccccc1)C(=O)N[C@@H](CC(C)C)C(=O)N[C@@H](CCCNC(=N)N)C(N)=O)[C@@H](C)CC)C(C)C)[C@@H](C)CC (stereo partly drawn) [XIII, 2-Buthyloctanoic acid-KR12-NH2] (X1-KRIVQRIKDFLR-NH2) | 0.5 | 2 | 8 | 2 | 
CCCCC(CC)C(=O)N[C@@H](CCCCN)C(=O)N[C@@H](CCCNC(=N)N)C(=O)N[C@H](C(=O)N[C@H](C(=O)N[C@@H](CCC(N)=O)C(=O)N[C@@H](CCCNC(=N)N)C(=O)N[C@H](C(=O)N[C@@H](CCCCN)C(=O)N[C@@H](CC(=O)O)C(=O)N[C@@H](Cc1ccccc1)C(=O)N[C@@H](CC(C)C)C(=O)N[C@@H](CCCNC(=N)N)C(N)=O)[C@@H](C)CC)C(C)C)[C@@H](C)CC (stereo partly drawn) [XIV, 2-Ethylhexanoic acid-KR12-NH2] (X3-KRIVQRIKDFLR-NH2) | 2 | 16 | 64 | 16 | 
CC[C@H](C)[C@H](NC(=O)[C@H](CCCNC(=N)N)NC(=O)[C@H](CCC(N)=O)NC(=O)[C@@H](NC(=O)[C@@H](NC(=O)[C@H](CCCNC(=N)N)NC(=O)[C@H](CCCCN)NC(=O)/C=C/c1ccccc1)[C@@H](C)CC)C(C)C)C(=O)N[C@@H](CCCCN)C(=O)N[C@@H](CC(=O)O)C(=O)N[C@@H](Cc1ccccc1)C(=O)N[C@@H](CC(C)C)C(=O)N[C@@H](CCCNC(=N)N)C(N)=O [XIX, trans-cinnamic acid-KR12-NH2] (X4-KRIVQRIKDFLR-NH2) | 4 | 8 | 32 | 8 | 
CC[C@H](C)[C@H](NC(=O)[C@H](CCCNC(=N)N)NC(=O)[C@H](CCC(N)=O)NC(=O)[C@@H](NC(=O)[C@@H](NC(=O)[C@H](CCCNC(=N)N)NC(=O)[C@H](CCCCN)NC(=O)CCc1ccccc1)[C@@H](C)CC)C(C)C)C(=O)N[C@@H](CCCCN)C(=O)N[C@@H](CC(=O)O)C(=O)N[C@@H](Cc1ccccc1)C(=O)N[C@@H](CC(C)C)C(=O)N[C@@H](CCCNC(=N)N)C(N)=O [XVII, 3-Phenylpropionic acid-KR12-NH2] (Hydrocinnamoyl-KRIVQRIKDFLR-NH2) | 4 | 4 | 64 | 8 | 
CC[C@H](C)[C@H](NC(=O)[C@H](CCCNC(=N)N)NC(=O)[C@H](CCC(N)=O)NC(=O)[C@@H](NC(=O)[C@@H](NC(=O)[C@H](CCCNC(=N)N)NC(=O)[C@H](CCCCN)NC(=O)CCCc1ccccc1)[C@@H](C)CC)C(C)C)C(=O)N[C@@H](CCCCN)C(=O)N[C@@H](CC(=O)O)C(=O)N[C@@H](Cc1ccccc1)C(=O)N[C@@H](CC(C)C)C(=O)N[C@@H](CCCNC(=N)N)C(N)=O [XVIII, 4-Phenylbutanoic acid-KR12-NH2] ({Butanoyl(4-Ph)}-KRIVQRIKDFLR-NH2) | 2 | 4 | 16 | 8 | 32
CC[C@H](C)[C@H](NC(=O)[C@H](CCCNC(=N)N)NC(=O)[C@H](CCC(N)=O)NC(=O)[C@@H](NC(=O)[C@@H](NC(=O)[C@H](CCCNC(=N)N)NC(=O)[C@H](CCCCN)NC(=O)C#Cc1ccccc1)[C@@H](C)CC)C(C)C)C(=O)N[C@@H](CCCCN)C(=O)N[C@@H](CC(=O)O)C(=O)N[C@@H](Cc1ccccc1)C(=O)N[C@@H](CC(C)C)C(=O)N[C@@H](CCCNC(=N)N)C(N)=O [XX, Phenylpropiolic acid-KR12-NH2] (X2-KRIVQRIKDFLR-NH2) | 4 | 16 | 64 | 8 | 8
